Nc1ccc(S(N)(=O)=O)cc1
solubility (mole fraction)
Conditions	in 1,4-dioxane	in DMF	in DMSO	in acetonitrile	in ethylene glycol	in n-butyl acetate	in n-hexane	in n-pentanol
293.15 K	0.0789	0.0187	0.0127	0.00367	0.000661	0.0011	0.000132	0.000634
303.15 K	0.101	0.0253	0.0172	0.00512	0.00077	0.00119	0.000144	0.000795
308.15 K	0.105	0.0322	0.0207	0.00757	0.000843	0.00125	0.000151	0.000955
313.15 K	0.115	0.0427	0.0246	0.0113	0.000951	0.00138	0.000155	0.00125
323.15 K	0.143	0.0617	0.033	0.0169	0.00116	0.00153	0.000164	0.00187
